# PubChem BioAssay AID651900 (Broad Institute, 2012)
# This list was built around the results that the source calls inconclusive (neither active nor inactive); the mix of calls is not that of the screen. The source made the active and inactive calls. The rule behind the calls is not given here.
# Experiment: cytotoxicity in NIH3T3 fibroblasts, dose response, cytotoxicity control, cell-based, plate reader, cherry-pick, two tests (AID 651900)
# Settings: at 26 µM (top of the series)
row,SMILES,"activity change, negative = cytotoxicity"
1,COc1ccc(Cn2ccc(=O)c(Cc3c(Cl)cccc3Cl)c2C)cc1,inconclusive: -9.55%
2,O=C(O)CN1C(=O)/C(=C\c2cc(Br)ccc2OCc2ccc([N+](=O)[O-])cc2)SC1=S,inconclusive: 8.45%
3,CC1(C)CC(=O)C=C(c2ccc3ncccc3c2)C1,inactive: -5.48%
4,CN1CCCC1CCOC(C)(c1ccccc1)c1ccc(Cl)cc1 (stereo unspecified),inconclusive: -31.8%
5,O=C(c1ccccc1F)N1CC[C@@H]2[C@H](CO)Nc3ccc(Br)cc3[C@@H]21,inactive: 6.69%
6,Fc1ccc2[nH]c3c(NCCN4CCOCC4)ncnc3c2c1,inconclusive: -1.95%
7,O=C(Nc1ccccc1)N1CCN(Cc2ccc3c(c2)OCO3)CC1,inconclusive: -3.08%
8,Cc1ccc(-c2nnc(N3CCN(C(=O)CSc4ncn[nH]4)CC3)c3ccccc23)cc1,inactive: -0.687%
9,O=C(Nc1nccs1)[C@H]1[C@H](CO)[C@H]2Cn3c(ccc(-c4cccnc4)c3=O)[C@H]2N1CC1CCCC1,inactive: 14.1%
10,O=C(Nc1cccnc1)c1ccc(N2CCOCC2)c([N+](=O)[O-])c1,inactive: 6.82%
11,COC(=O)c1c(C(=O)OC)c(-c2cccc(F)c2)n2c1CS(=O)C2 (stereo unspecified),inactive: 8.17%

# 3 entries out of the list, ordered by number of heavy atoms, smallest number first:
row,SMILES,"activity change, negative = cytotoxicity"
3,CC1(C)CC(=O)C=C(c2ccc3ncccc3c2)C1,inactive: -5.48%
5,O=C(c1ccccc1F)N1CC[C@@H]2[C@H](CO)Nc3ccc(Br)cc3[C@@H]21,inactive: 6.69%
1,COc1ccc(Cn2ccc(=O)c(Cc3c(Cl)cccc3Cl)c2C)cc1,inconclusive: -9.55%
